# From patent US8383656B2, “Thiazolidinedione energy restriction-mimetic agents” (The Ohio State University Research Foundation, priority 2009, dated 2013)
# Some results were stated once for a whole list of compounds, not compound by compound. For at least one compound, name, drawing or mass did not settle the structure.
# System: LPS-stimulated IL-6 production in THP-1 macrophages
# Test: ELISA of LPS-stimulated IL-6 production in THP-1 macrophages
# Type: cell-based, human
# Conditions: 10 μM, 6 h, LPS-stimulated THP-1
# Protocol: Cells and cell culture. THP-1 monocytic cells were purchased from the American Type Culture Collection (Rockville, Md.), and maintained with L-glutamine-containing RPMI 1640 supplemented with 10% fetal bovine serum (FBS), 0.25% glucose, 0.01% sodium pyruvate, 50 μM 2-mercaptoethanol, and 0.1 ml/ml penicillin/streptomycin/L-glutamine. Differentiation of THP-1 monocytes into macrophages was carried out by exposure to PMA (50 nM) in the aforementioned RPMI 1640 medium for 24 h. Colon-26 (C-26) adenocarcinoma cells were provided by a researcher at The Ohio State University. The C-26 cells were maintained in RPMI 1640 medium supplemented with 5% FBS and 1% penicillin/streptomycin.
# ELISA. IL-6 release by differentiated THP-1 macrophages in response to 10 ng/ml of LPS was analyzed by using the IL-6 ELISA kit (Cayman Chemical Co.; Ann Arbor, Mich.) according to the manufacturer's instruction in triplicate. The effect of each test compound on LPS-stimulated IL-6 release is presented as percent inhibition and was calculated using the following formula: percentage inhibition=100%×{1−[(O.D. of sample−O.D. of control)/(O.D. of LPS−O.D. of control)]}.
compound,measurement,value
"COc1ccc(S(=O)(=O)Nc2ccc(C=C3SC(=O)N(CC4(C)CCCCC4)C3=O)cc2)cc1 [Compound 49, 4-Methoxy-N-{4-[3-(1-methyl-cyclohexylmethyl)-2,4-dioxo-thiazolidin-5-yli-denemethyl]-phenyl}-benzenesulfonamide]",inhibition of IL-6 production,greater than 80%
